Results reported in patent publication US6558686B1, “Method of coating medical devices with a combination of antiseptics and antiseptic coating therefor” (Baylor College of Medicine, priority 1995, dated 2003).

Key:
Experiment in all cases: Zones of inhibition, single-layer coated stainless steel cylinders (Example 4)
Conditions in all cases: single-layer coated stainless steel cylinder, 18-24 hours at 37° C.
S. epidermidis = system: S. epidermidis
P. aerug = assay type: cell-based
Candida albicans = assay type: cell-based

In the case of `CCCCCCCCCCCCCCCC[n+]1ccccc1.[Cl-]` [Cetylpyridinium, 1-Hexadecylpyridinium chloride], the “Zones of inhibition S. epidermidis” value (S. epidermidis) is reported as 33 m.m, the “Zones of inhibition P. aerug” value (P. aerug) is reported as 0 m.m and the “Zones of inhibition Candida albicans” value (Candida albicans) is reported as 28 m.m.
